The source of these data is patent US12312411 (Takeda / Millennium, dated 2025).

Chains of the proteins cited; added tags and fusions are not shown. Lines headed by an entry give the natural chain unless they say otherwise; changes in a name come on top.
UniProt P28907: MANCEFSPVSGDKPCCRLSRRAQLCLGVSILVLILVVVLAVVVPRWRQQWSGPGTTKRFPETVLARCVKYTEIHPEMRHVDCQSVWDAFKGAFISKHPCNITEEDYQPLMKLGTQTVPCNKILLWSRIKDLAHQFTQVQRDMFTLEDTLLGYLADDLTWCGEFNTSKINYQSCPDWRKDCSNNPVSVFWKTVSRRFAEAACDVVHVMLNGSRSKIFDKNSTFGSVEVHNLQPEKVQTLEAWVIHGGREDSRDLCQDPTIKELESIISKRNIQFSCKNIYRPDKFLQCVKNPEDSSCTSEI
UniProt Q5VAN0: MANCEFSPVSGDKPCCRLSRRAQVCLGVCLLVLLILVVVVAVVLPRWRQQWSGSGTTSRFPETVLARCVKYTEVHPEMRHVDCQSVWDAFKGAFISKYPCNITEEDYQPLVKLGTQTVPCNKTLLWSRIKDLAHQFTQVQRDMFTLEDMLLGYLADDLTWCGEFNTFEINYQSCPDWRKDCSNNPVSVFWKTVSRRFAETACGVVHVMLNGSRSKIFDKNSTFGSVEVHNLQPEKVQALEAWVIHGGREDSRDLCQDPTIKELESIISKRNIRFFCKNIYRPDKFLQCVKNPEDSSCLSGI

For experiment [1], the target named is human CD38 on human multiple myeloma MOLP-8 cells (human) (UniProt P28907). The experiment in a line: flow cytometry, IgG1 on MOLP-8 cells. (In general: In flow cytometry, cells or beads pass a laser one at a time.)
Experiment [2] concerns the target cynomolgus CD38 on cells expressing recombinant cynomolgus CD38 (cynomolgus) (UniProt Q5VAN0). The experiment is described as follows: flow cytometry, IgG1 on cells expressing recombinant cynomolgus CD38.

Results are given in words; binding and its absence hold for the method and conditions named. Some binding calls cover weakened binding; strength is not graded here.

B1: CD38TM6 formatted into human IgG1 (antibody, V domains shown)
VH: EVQLLESGGGLVQPGGSLRLSCAASGFTFDDYGMTWVRQAPGKGLEWVSGINWNGGSTGYADSVKGRFTISRDNSKNTLYLQMNSLRAEDTAVYYCARGGLFHDSSGYYFGHWGQGTLVTVSS
VL: QSVLTQPPSASGTPGQRVTISCSGSSSNIGNSYVSWYQQLPGTAPKLLIYRNNQRPSGVPDRFSGSKSGTSASLAISGLRSEDEADYYCSAWDDNLSVLFGGGTKLTVL
Take B1: the binding entry in experiment [1] and in experiment [2] was “binds” throughout.
